Source: PubChem BioAssay AID1224828 (NIAID, 2016)
Purpose: 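Find genes required for NF-kappaB p65 moving into the nucleus after LPS in mouse macrophages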 (primary screen). System: mouse RAW264.7 G9 macrophage reporter cells (GFP-p65, Tnf promoter-mCherry). Reagents: siRNA pool against mouse genes, 100 nM. Timing: 2 days siRNA transfection, then 40 min LPS before fixation. Challenge: LPS (Salmonella minnesota R595) at 10 ng/ml. Read-out: 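Imaged p65 nuclear translocation ratio, normalised to the plate median, converted to robust z-scores and averaged across two replicates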. Scale: p65 translocation robust z-score: higher = more nuclear NF-kappaB p65 after LPS than the plate median; nuclear/cytoplasmic p65 ratio: higher = more nuclear NF-kappaB p65. Call rule: 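Called active when z exceeds 3.3 or falls under -1.56 (median of Tlr4 controls), giving activity score of at least 50; no calls for control wells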. Meaning of the calls: active = hit (p65 shift raised or lowered); inactive = no clear change.
This is an unselected part of about 17,000 reagents. 762 of them (4.5%) were called active. 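Active calls include both raised and lowered p65 entry, mostly lowered; wells with fewer than 50 cells lack a z-score.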 Raw values vary from plate to plate and are shown uncorrected. Unmarked entries are inactive.

Lpin1
- nuclear/cytoplasmic p65 ratio, rep 1: 1.7
- nuclear/cytoplasmic p65 ratio, rep 2: 1.44
- low cell count flag: fewer than 50 cells per well; well left out of scoring

Cbx4
- p65 translocation robust z-score: -0.67
- nuclear/cytoplasmic p65 ratio, rep 1: 1.38
- nuclear/cytoplasmic p65 ratio, rep 2: 1.28
- low cell count flag: enough cells to score

Zftraf1
- p65 translocation robust z-score: 0.73
- nuclear/cytoplasmic p65 ratio, rep 1: 1.62
- nuclear/cytoplasmic p65 ratio, rep 2: 1.97
- low cell count flag: enough cells to score

Dnaja2
- nuclear/cytoplasmic p65 ratio, rep 1: 1.49
- nuclear/cytoplasmic p65 ratio, rep 2: 1.34
- low cell count flag: fewer than 50 cells per well; well left out of scoring

Or4c123
- p65 translocation robust z-score: -1.88 (active)
- nuclear/cytoplasmic p65 ratio, rep 1: 1.46
- nuclear/cytoplasmic p65 ratio, rep 2: 1.22
- low cell count flag: enough cells to score

Crb1
- p65 translocation robust z-score: 0.26
- nuclear/cytoplasmic p65 ratio, rep 1: 1.66
- nuclear/cytoplasmic p65 ratio, rep 2: 1.28
- low cell count flag: enough cells to score

Tnni2
- p65 translocation robust z-score: -0.88
- nuclear/cytoplasmic p65 ratio, rep 1: 1.43
- nuclear/cytoplasmic p65 ratio, rep 2: 1.36
- low cell count flag: enough cells to score

Gga3
- p65 translocation robust z-score: 1.55
- nuclear/cytoplasmic p65 ratio, rep 1: 1.79
- nuclear/cytoplasmic p65 ratio, rep 2: 1.7
- low cell count flag: enough cells to score

Klhl10
- p65 translocation robust z-score: 1.58
- nuclear/cytoplasmic p65 ratio, rep 1: 1.79
- nuclear/cytoplasmic p65 ratio, rep 2: 1.63
- low cell count flag: enough cells to score

Ppp1r15a
- p65 translocation robust z-score: 2.06
- nuclear/cytoplasmic p65 ratio, rep 1: 1.67
- nuclear/cytoplasmic p65 ratio, rep 2: 1.65
- low cell count flag: enough cells to score

Sprr3
- p65 translocation robust z-score: -0.49
- nuclear/cytoplasmic p65 ratio, rep 1: 1.31
- nuclear/cytoplasmic p65 ratio, rep 2: 1.21
- low cell count flag: enough cells to score

Abt1
- p65 translocation robust z-score: -0.25
- nuclear/cytoplasmic p65 ratio, rep 1: 1.61
- nuclear/cytoplasmic p65 ratio, rep 2: 1.54
- low cell count flag: enough cells to score

Reprinted from above, 2 entries:
Klhl10
- p65 translocation robust z-score: 1.58
- nuclear/cytoplasmic p65 ratio, rep 1: 1.79
- nuclear/cytoplasmic p65 ratio, rep 2: 1.63
- low cell count flag: enough cells to score

Ppp1r15a
- p65 translocation robust z-score: 2.06
- nuclear/cytoplasmic p65 ratio, rep 1: 1.67
- nuclear/cytoplasmic p65 ratio, rep 2: 1.65
- low cell count flag: enough cells to score
